Taken from: PubChem BioAssay AID1259424 (University of Nebraska Medical Center, 2018)

Test: 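Seek colon cancer survival genes behaving like KSR1, using a six-gene signature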 (primary screen)
System: human HCT116 colon cancer cells
Reagent: siRNA pool against human genes, 50 nM
Measurement: 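Six signature mRNAs by branched-DNA multiplex assay, scaled to two housekeeping genes and non-targeting median, log2; matched to mean KSR1 knockdown profile by Pearson correlation and euclidean distance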
Scale: mean correlation with KSR1 profile and KSR1 correlation: higher = expression change more like KSR1 knockdown; mean distance from KSR1 profile: higher = expression change less like KSR1 knockdown
In all, the deposit lists about 14,000 reagents; below is a random part of them. 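Higher correlation or smaller distance means closer resemblance to KSR1 loss; control wells, including KSR1 knockdowns, recur on many plates.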 No sequences are given here. The record does not give: the time to read-out.

no.	gene symbol	mean correlation with KSR1 profile	mean distance from KSR1 profile	KSR1 correlation, replicate 1	KSR1 correlation, replicate 2	KSR1 correlation, replicate 3
1	ADAM23 (GeneID 8745)	0.189	0.997	0.553	0.505	-0.548
2	ARHGEF9 (GeneID 23229)	-0.596	2.3	-0.668	-0.528	-0.336
3	SLC8B1 (GeneID 80024)	0.613	1.11	0.775	0.368	-0.137
4	CNNM2 (GeneID 54805)	-0.029	1.54	0.0504	-0.249	-0.00306
5	NR2C2 (GeneID 7182)	-0.763	3.72	-0.748	-0.689	-0.942
6	PERP (GeneID 64065)	0.199	2.72	0.0963	0.106	0.0995
7	GTPBP4 (GeneID 23560)	0.313	2.55	0.372	0.191	0.236
8	POMGNT1 (GeneID 55624)	0.0273	1.72	0.216	-0.222	-0.417
9	NCOR1 (GeneID 9611)	0.376	2.07	0.379	0.387	0.41
10	ICAM2 (GeneID 3384)	0.202	0.834	-0.275	0.0461	0.602
11	TEX2 (GeneID 55852)	-0.0628	2.86	-0.371	-0.221	0.0472
12	CHAT (GeneID 1103)	0.115	1.96	-0.21	-0.287	0.402
13	CCL27 (GeneID 10850)	-0.201	1.31	0.0611	-0.325	-0.517
14	THBS2 (GeneID 7058)	-0.104	2	-0.106	-0.213	-0.0284
15	SEPTIN11 (GeneID 55752)	-0.0945	2.04	0.177	-0.252	-0.0318
16	PAPOLB (GeneID 56903)	-0.0412	3.09	-0.162	-0.229	0.142
17	NCR1 (GeneID 9437)	-0.569	2.79	-0.562	-0.605	-0.594
18	FLJ10246 (retired record) (GeneID 55104)	0.674	1.86	0.804	0.444	0.539
19	RTN1 (GeneID 6252)	-0.301	2.42	-0.28	-0.384	-0.0564
20	POPDC2 (GeneID 64091)	-0.286	2.1	-0.219	-0.0478	-0.605
21	SAG (GeneID 6295)	0.383	1.73	0.373	0.356	0.359
22	ACTL6B (GeneID 51412)	-0.839	2.67	-0.787	-0.971	-0.784

Continued; the last 4 above are carried over.
no.	gene symbol	mean correlation with KSR1 profile	mean distance from KSR1 profile	KSR1 correlation, replicate 1	KSR1 correlation, replicate 2	KSR1 correlation, replicate 3
19	RTN1 (GeneID 6252)	-0.301	2.42	-0.28	-0.384	-0.0564
20	POPDC2 (GeneID 64091)	-0.286	2.1	-0.219	-0.0478	-0.605
21	SAG (GeneID 6295)	0.383	1.73	0.373	0.356	0.359
22	ACTL6B (GeneID 51412)	-0.839	2.67	-0.787	-0.971	-0.784
23	CHAF1A (GeneID 10036)	0.473	2.95	0.325	0.504	0.552
24	BEST1 (GeneID 7439)	-0.609	2.24	-0.273	-0.594	-0.696
25	CELSR3 (GeneID 1951)	0.33	3.48	0.363	0.49	0.0824
26	CILK1 (GeneID 22858)	0.304	2.41	0.396	0.401	0.248
27	LMTK1 (GeneID 9625)	0.788	1.77	0.868	0.688	0.486
28	PTGS2 (GeneID 5743)	0.394	0.941	0.536	0.37	0.309
29	LEF1 (GeneID 51176)	0.281	1.98	0.294	0.259	0.363
30	AGPAT4 (GeneID 56895)	0.176	4	0.359	0.245	0.061
31	ASAP2 (GeneID 8853)	-0.0593	2.4	0.121	0.119	-0.148
32	TDG (GeneID 6996)	-0.286	2.35	-0.152	-0.362	-0.284
33	NLGN4Y (GeneID 22829)	-0.143	2.07	0.0649	-0.232	-0.189
34	ITGA9 (GeneID 3680)	-0.59	2.13	-0.665	-0.418	-0.289
